Data on 1 substance can be found in paper PMC12696947.

Amino acid sequences for entries named in this document (tags omitted).
UniProt Q92585: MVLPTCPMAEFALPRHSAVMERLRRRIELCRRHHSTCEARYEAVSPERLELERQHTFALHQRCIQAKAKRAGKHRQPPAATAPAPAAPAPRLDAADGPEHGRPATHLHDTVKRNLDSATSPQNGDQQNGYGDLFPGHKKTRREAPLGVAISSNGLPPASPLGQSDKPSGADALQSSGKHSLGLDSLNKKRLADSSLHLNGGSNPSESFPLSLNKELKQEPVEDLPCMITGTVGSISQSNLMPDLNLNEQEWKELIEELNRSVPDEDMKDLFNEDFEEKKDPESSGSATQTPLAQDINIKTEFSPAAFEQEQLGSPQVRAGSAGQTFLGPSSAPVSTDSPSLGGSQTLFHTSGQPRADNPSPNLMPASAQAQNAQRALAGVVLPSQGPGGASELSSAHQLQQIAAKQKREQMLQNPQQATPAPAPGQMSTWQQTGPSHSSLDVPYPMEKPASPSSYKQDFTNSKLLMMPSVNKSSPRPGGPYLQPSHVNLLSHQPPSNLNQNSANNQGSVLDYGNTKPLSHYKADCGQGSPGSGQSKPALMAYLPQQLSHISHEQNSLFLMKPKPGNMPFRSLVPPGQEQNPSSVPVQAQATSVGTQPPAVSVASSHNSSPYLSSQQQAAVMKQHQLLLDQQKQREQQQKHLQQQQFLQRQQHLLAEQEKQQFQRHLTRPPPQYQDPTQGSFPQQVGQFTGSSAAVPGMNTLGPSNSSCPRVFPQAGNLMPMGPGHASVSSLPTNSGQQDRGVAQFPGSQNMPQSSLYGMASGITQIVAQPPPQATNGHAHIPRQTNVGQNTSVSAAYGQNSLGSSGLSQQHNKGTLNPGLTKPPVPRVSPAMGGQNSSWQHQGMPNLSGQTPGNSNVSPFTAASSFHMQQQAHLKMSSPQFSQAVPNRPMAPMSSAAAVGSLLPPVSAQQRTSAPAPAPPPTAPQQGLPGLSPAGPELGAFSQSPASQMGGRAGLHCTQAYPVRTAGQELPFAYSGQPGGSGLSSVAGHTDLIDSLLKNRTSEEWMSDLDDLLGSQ
UniProt P40763: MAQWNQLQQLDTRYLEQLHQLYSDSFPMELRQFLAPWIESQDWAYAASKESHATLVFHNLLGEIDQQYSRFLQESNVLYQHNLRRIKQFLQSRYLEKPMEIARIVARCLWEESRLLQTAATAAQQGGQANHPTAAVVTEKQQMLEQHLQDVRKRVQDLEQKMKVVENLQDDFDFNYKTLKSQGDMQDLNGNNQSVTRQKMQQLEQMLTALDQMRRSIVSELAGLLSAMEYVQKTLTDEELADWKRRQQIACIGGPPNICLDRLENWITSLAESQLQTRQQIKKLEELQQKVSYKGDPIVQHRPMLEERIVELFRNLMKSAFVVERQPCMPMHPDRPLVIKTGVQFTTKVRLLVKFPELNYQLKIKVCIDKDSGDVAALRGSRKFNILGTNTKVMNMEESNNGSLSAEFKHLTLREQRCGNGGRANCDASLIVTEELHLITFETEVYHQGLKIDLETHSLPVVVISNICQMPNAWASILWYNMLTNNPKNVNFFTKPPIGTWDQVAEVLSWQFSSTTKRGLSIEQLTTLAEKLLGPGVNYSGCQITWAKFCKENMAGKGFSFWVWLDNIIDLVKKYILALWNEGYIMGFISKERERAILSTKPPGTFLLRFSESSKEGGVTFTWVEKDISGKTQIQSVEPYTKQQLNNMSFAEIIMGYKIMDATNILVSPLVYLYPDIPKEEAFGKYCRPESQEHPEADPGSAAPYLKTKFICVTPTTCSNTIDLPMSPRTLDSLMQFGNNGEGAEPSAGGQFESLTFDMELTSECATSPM

This assay deals with MAML1 (endogenous) (human (endogenous in HepG2)) (UniProt Q92585). The experiment in a line: affinity purification with mass spectrometry; MAML1 complex precipitated from HCC cells; precipitates digested with trypsin and chymotrypsin, LC-MS/MS, MaxQuant search.

Results are given in words; binding and its absence hold for the method and conditions named. Binding seen in cells or lysates may run through a third protein. A yes stands for co-enrichment or nearness to the bait. Other partners may have been found.

For “STAT3 (endogenous) (from UniProt P40763 1-770)”, the binding result is on record as “binds”.
